Results published in patent US9422239B1, “Dual PPAR-δ PPAR-γ agonists” (Auburn University, priority 2013, dated 2016).
At least one structure is not confirmed: it was looked up by name or label, or the drawing left a doubt.

Tests used:
db/db mice [1] = assay: Y-maze and object recognition task, rosiglitazone; assay type: in vivo; details: oral rosiglitazone 3 mg/kg, 2 weeks
db/db mice [2] = assay: Hippocampal slice electrophysiology (LTP, PTP); assay type: in vivo
IRS-1, Tau, PTEN = assay: Insulin signaling, Tau phosphorylation and PTEN expression in hippocampi; assay type: in vivo, mice
BDNF, NR2A, GluR1 = assay: BDNF and post synaptic receptor expression in the diabetic hippocampus; assay type: in vivo, mice; details: ICV
H19-7 hippocampal cells = assay: BDNF, post synaptic markers and spine formation in H19-7 hippocampal cells; assay type: cell-based; details: H19-7 cells, 10 μM
From the text: As shown in FIGS. 15A & B, reduced BDNF protein and gene expression is observed in db/db hippocampi which helps explain the observation that diabetes attenuates the expression of post synaptic receptor expression levels in db/db mice hippocampi.
As mentioned above, BDNF is known to induce synaptogenesis, spine density, and post synaptic receptor expression in neurons but has been previously shown to be reduced in AD brains.
The novel compounds (e.g., compound 9) have been developed as tools to better study the effects of PPARγ activation in the hippocampus upon cognition in AD.

Structure (SMILES): CN(CCOc1ccc(CC2SC(=O)NC2=O)cc1)c1ccccn1 (centres unmarked) [Rosiglitazone, rosiglitazone, reference compound]
- Y-maze or ORT outcomes after 24 hour (db/db mice [1]): no significant differences
- Post-tetanic potentiation (PTP) (db/db mice [2]; ICV): improved
- Post-tetanic potentiation (PTP) (db/db mice [2]; oral): improved
- Tau phosphorylation (IRS-1, Tau, PTEN; ICV, wild type and db/db hippocampi): decreases
- PTEN expression in the hippocampus (IRS-1, Tau, PTEN; db/db mice, 0.1 mg/kg ICV): mitigates
- IRS-1 protein expression (IRS-1, Tau, PTEN; db/db mice, 0.1 mg/kg ICV daily for 14 days): increases
- BDNF and post synaptic receptors, NR2A, and GluR1 expression (BDNF, NR2A, GluR1): improved
- mRNA and protein levels of BDNF, GluR1 and NR2A (H19-7 hippocampal cells): increased
